# No constants are given. Whether binding was seen depends on the method and setting. In cells and extracts the contact can be indirect. Binding calls can cover weak binding; strength is not graded here. Where a sequence is shown, tags or fusion partners need not be part of it.
# Amino acid sequences for entries named in this document (tags omitted). A change or cut given only in a name is not applied to a line headed by its entry.
# UniProt Q8T9L5: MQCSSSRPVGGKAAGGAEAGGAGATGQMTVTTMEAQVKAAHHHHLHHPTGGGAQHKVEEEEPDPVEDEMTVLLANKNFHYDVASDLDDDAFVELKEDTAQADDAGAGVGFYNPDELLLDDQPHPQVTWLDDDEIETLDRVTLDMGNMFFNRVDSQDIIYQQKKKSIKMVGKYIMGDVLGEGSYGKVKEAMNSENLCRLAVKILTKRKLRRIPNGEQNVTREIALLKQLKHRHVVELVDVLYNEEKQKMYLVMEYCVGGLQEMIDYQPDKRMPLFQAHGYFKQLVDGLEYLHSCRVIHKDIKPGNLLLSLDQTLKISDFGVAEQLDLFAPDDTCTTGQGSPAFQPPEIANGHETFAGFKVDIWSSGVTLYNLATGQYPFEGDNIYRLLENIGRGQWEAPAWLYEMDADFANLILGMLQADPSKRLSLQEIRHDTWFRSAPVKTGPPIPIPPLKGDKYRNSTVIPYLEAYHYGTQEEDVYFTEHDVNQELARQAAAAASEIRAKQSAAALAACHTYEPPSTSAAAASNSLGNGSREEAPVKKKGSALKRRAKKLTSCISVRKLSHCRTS
# B1: PDK1-HA (Phosphoinositide-dependent kinase 1) (enzyme, UniProt Q9W0V1 1-836)
# chain: MKCKSWSNKINNYVVRKIKSIKINGTQQQLQLPGSGASGIAAAAVITVASDCGENCSSNGTEHQQHFNIATTTATSATEATMPAMAKEKASATVSLGESNFRDINLKDLAVVVEAASRLHHQQNVCGCGAVSSTENNNNSRYGSSKYLTNGHTSPLAAAVASNSSSVATTPHCRMLHNCSLQQYQNDIRQQTEILDMLRQQHQQGYQSQQQQQQPQQQQEQQQQQEQSQQQQQLQNPAPRRSPNDFIFGRYIGEGSYSIVYLAVDIHSRREYAIKVCEKRLILRERKQDYIKREREVMHQMTNVPGFVNLSCTFQDQRSLYFVMTYARKGDMLPYINRVGSFDVACTRHYAAELLLACEHMHRRNVVHRDLKPENILLDEDMHTLIADFGSAKVMTAHERALATEHCSEQRRSNSDEDDEDSDRLENEDEDFYDRDSEELDDGDDEQQQEEMDSPRHRQRRYNRHRKASFVGTAQYVSPEVLQNGPITPAADLWALGCIVYQMIAGLPPFRGSNDYVIFKEILDCAVDFPQGFDKDAEDLVRKLLRVDPRDRLGAQDEFGYYESIRAHPFFAGIDWQTLRQQTPPPIYPYLPGVSQDEDFRSSYTVPGDLEPGLDERQISRLLSAELGVGSSVAMPVKRSTAKNSFDLNDAEKLQRLEQQKTDKWHVFADGEVILKKGFVNKRKGLFARKRMLLLTTGPRLIYIDPVQMIKKGEIPWSPDLRAEYKNFKIFFVHTPNRTYYLDDPEGYAIHWSEAIENMRKLAYGDPSSTSAVSCSSGSSNSLAVISNSSAASSSNSPTVKRSSPVNAPQASTASDNRTLGSTRTGTSPSKKTASK
# B2: Myc-PDK1 (Phosphoinositide-dependent kinase 1) (enzyme, UniProt Q9W0V1 1-836)
# chain: B1 chain
# What was measured:
# [1] = target: wild type GFP-LKB1 (Drosophila LKB1) (Drosophila melanogaster) (UniProt Q8T9L5); assay: co-IP; S2R+ cells cotransfected with GFP-LKB1 variants and tagged partner(s); lysed three days after transfection; GFP-LKB1 immunoprecipitated with GFP-binder (Chromotek); partners detected by immunoblotting
# [2] = target: GFP-LKB1 T353A (Drosophila melanogaster); assay: as above
Binder,binding [1],binding [2]
B1,binds,
B2,binds,binds
